# Experimental data as given in PubChem BioAssay AID504834 (National Center for Advancing Translational Sciences (NCATS), 2011).
# Where “and” joins values, the source holds several entries; their conditions need not be identical. Equal values may be shown once. In all, about 320,000 compounds went through this assay and about 22,000 (6.9%) were called active. This list was built around the results that the source calls inconclusive (neither active nor inactive); the mix of calls is not that of the screen. The call rests on the fitted dose curve; in most records, active means well fitted inhibition curve with a large enough effect; inconclusive means small, poorly fitted or top-dose-only effect, or another doubt; inactive means no such curve, though single readings can be large or run the other way. Where the call is inconclusive, the potency comes from a doubtful curve fit.
# Assay: Primary qHTS for delayed death inhibitors of the malarial parasite plastid, 96 hour incubation
# Conditions: P. falciparum luciferase reporter growth; series mostly up to 28.7 µM; activity change, negative = inhibition: at the top concentration
# How it was run: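 P. falciparum expressing integrated firefly luciferase, in erythrocytes at 2% hematocrit, 0.05% parasitemia, incubated with compounds 96 h at 37 C, 5% CO2. Growth inhibition read as loss of luminescence; two-generation exposure targets delayed-death apicoplast inhibitors.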
# On the % scale 0 is the no-effect control and ±100 the full control effect; potency means the concentration at half of the fitted maximal effect.
SMILES,Potency,"activity change, negative = inhibition"
CCOC(=O)c1cc(C(=O)OCC)cc(-n2c(C)cc(C(=O)CN3CCOCC3)c2C)c1,"inconclusive: 10.4 µM [inhibitor, single point]",–
O=C(CSc1nnc(Cc2cc(=O)[nH]c(=O)[nH]2)n1-c1ccccc1)N1CCCC1,"inconclusive: 13.1 µM [inhibitor, single point]",–
CCc1ccc(NC(=O)c2noc3c2CCc2ccccc2-3)cc1,"inconclusive: 10.4 µM [inhibitor, single point]",–
O=C(O)c1ccc(NS(=O)(=O)c2ccc(NC(=O)c3ccccc3Cl)cc2)cc1,active: 6.57 µM,–
CC1CCN(c2nnc(-c3ccccc3)c3ccccc23)CC1,"inconclusive: 18.5 µM [inhibitor, single point]",–
CCCN(C(=O)c1cccc(S(=O)(=O)N2CCN(C)CC2)c1)c1c(N)n(Cc2ccccc2)c(=O)[nH]c1=O,–,inactive: 5.32%
Cc1[nH]c2ccccc2c1/C=N/NC(=O)c1cc(-c2ccccc2)n[nH]1,"inconclusive: 14.7 µM [inhibitor, partial curve, poor fit]",–
O=C(Cn1c(CC(=O)N2CCOCC2)nc2ccccc21)Nc1ccc2c(c1)OC(F)(F)O2,"inconclusive: 4.15 µM [inhibitor, partial curve]",–
CN1CCC(NC(=S)Nc2cccc([N+](=O)[O-])c2)CC1,"inconclusive: 3.7 µM [inhibitor, partial curve, poor fit]",–
CC(=O)Nc1ccc(NC(=O)C(C)OC(=O)C2CC3C=CC2C3)cc1 (centres undefined),"inconclusive: 16.5 µM [inhibitor, single point]",–
NS(=O)(=O)c1ccc(N/N=C2/CCCCC2C2CCCCC2)c([N+](=O)[O-])c1 (centres undefined),"inconclusive: 14.7 µM [inhibitor, partial curve, poor fit]",–
NC(=O)C1CC(=O)N(c2ccc(OCC(=O)Nc3ccccc3F)cc2)C1 (centres undefined),"inconclusive: 4.65 µM [inhibitor, partial curve, poor fit]",–
O=C(NCCC(=O)N1CCN(c2ccccc2O)CC1)c1ccc(Br)cc1,"inconclusive: 11.7 µM [inhibitor, single point]",–
CCOc1ccccc1Nc1ncccc1C(=O)O,–,inactive: 0.723%
O=C(O)c1cnn(-c2ccccc2)c1-n1cccc1,"inconclusive: 16.5 µM [inhibitor, partial curve, poor fit]",–
CCC(C)[C@H](NC(=O)[C@@H]1CSC2c3ccccc3C(=O)N21)C(=O)NCC1CCCO1 (some centres undefined),"inconclusive: 18.5 µM [inhibitor, single point]",–
CCCCn1cnc2c(oc3nc4c(cc32)CCCC4)c1=O,–,inactive: -57%
COc1ccc2[nH]c(=O)c(CN(Cc3ccc4c(c3)OCO4)C(C)=O)cc2c1,"inconclusive: 11.7 µM [inhibitor, single point]",–
Cc1c(NC(=O)c2ccc(N(C)S(C)(=O)=O)cc2)c(=O)n(-c2ccccc2)n1C,"inconclusive: 3.29 µM [inhibitor, partial curve, poor fit]",–
O=C(c1ccc(-n2cncn2)c([N+](=O)[O-])c1)N1CCN(S(=O)(=O)c2ccccc2Br)CC1,–,inactive: -9.48%
Cc1ccc(OCC(=O)Nc2ccc(O)c(-c3nc4ccccc4o3)c2)cc1,–,inactive: 81.9%
O=C(Nc1ccc(NC(=O)C2CC2)nc1)c1cnccn1,–,inactive: 8.39%
CC(C)(C)c1csc(NC2=NS(=O)(=O)c3ccccc32)n1,–,inactive: 0%

SMILES,Potency,"activity change, negative = inhibition"
CN1CCN(c2ccc(NC(=O)COc3cccc4ccccc34)cc2)CC1,"inconclusive: 0.0329 µM [inhibitor, full curve, poor fit]",–
O=C(Nc1ccccc1NC(=O)c1ccc(F)cc1)c1ccc(F)cc1,"inconclusive: 13.1 µM [inhibitor, partial curve]",–
C=CCSC1=Nc2cc(OC)c(OC)cc2C2=NC(=O)CN12,"inconclusive: 0.0033 µM [inhibitor, full curve, poor fit]",–
CCC(C)NC(=O)[C@@H]1CCCN1C(=O)C1CCN(S(=O)(=O)c2ccc(C)cc2)CC1 (some centres undefined),"inconclusive: 18.5 µM [inhibitor, partial curve, poor fit]",–
Cc1ccc(-n2c(CNc3ccc(C)c(Cl)c3)n[nH]c2=S)cc1,"inconclusive: 11.7 µM [inhibitor, partial curve]",–
Cc1cccc(NC(=O)c2cccs2)n1,–,inactive: -10.3%
Cc1ccc(Nc2cc(C)nc3ncnn23)c(Cl)c1,"inconclusive: 18.5 µM [inhibitor, single point]",–
COC(=O)c1ccc(C23CC4(C2)[C@H](CN(C)[C@@H]4c2ccccc2)C3c2ccc(C(F)(F)F)cc2)cc1 (some centres undefined),"inconclusive: 13.1 µM [inhibitor, single point]",–
Cc1ccc(N2C(=O)C3C(c4ccccc4)N4CCCN4C3(C)C2=O)cc1 (centres undefined),"inconclusive: 2.94 µM [inhibitor, partial curve, poor fit]",–
Cn1cc(Br)c(C(=O)NC(=S)N2CCN(c3ccccn3)CC2)n1,"inconclusive: 0.0738 µM [inhibitor, full curve, poor fit]",–
COc1ccc(C2=NN(C(=O)CCC(=O)O)C(c3ccc([N+](=O)[O-])cc3)C2)cc1 (centres undefined),–,inactive: -21.4%
CC1CN(c2nc3ccccc3cc2-c2ccccc2)CC(C)O1 (centres undefined),"inconclusive: 13.1 µM [inhibitor, single point]",–
c1ccc2c(c1)ncn2CCCOc1ccc2c(c1)CCC2,active: 13.1 µM,–
CC(C)N(C(=O)CN1CCN(C(=O)C2COc3ccccc3O2)CC1)C(C)C (centres undefined),"inconclusive: 0.738 µM [inhibitor, full curve]",–
COc1ccc(C(C)=O)cc1COC(=O)c1ccc(N)c([N+](=O)[O-])c1,"inconclusive: 0.37 µM [inhibitor, full curve, poor fit]",–
CCN1CCN(C(=O)/C=C/c2ccc(OC)c(OC)c2)CC1,"inconclusive: 18.5 µM [inhibitor, single point]",–
Cc1cc(Cl)ccc1OCC(=O)OC(C)C(=O)NC(N)=O (centres undefined),"inconclusive: 13.1 µM [inhibitor, partial curve, poor fit]",–
COc1cc2c(cc1OC)C1(CCCC1)CNC2c1cccc([N+](=O)[O-])c1 (centres undefined),active: 3.29 µM,–
COc1ccccc1N1CCN(C(=O)CCc2ccccc2)CC1,"inconclusive: 10.4 µM [inhibitor, partial curve, poor fit]",–
CCc1nc2sc3c(c2c(=O)o1)CCCC3,–,inactive: 67.1%
Cc1cc2ccccn2c1C(=O)c1nc(NCc2ccccc2)ncc1Cl,"inconclusive: 18.5 µM [inhibitor, single point]",–
COc1ccccc1NC(=O)N1CCN(c2ccnc3cc(Cl)ccc23)CC1,active: 2.62 µM,–
COc1ccc(NS(=O)(=O)c2c(C)n(C)c(=O)n(C)c2=O)cc1OC,–,inactive: 8.23%

# 5 structures already listed, ordered by SMILES length, rising:
SMILES,Potency,"activity change, negative = inhibition"
O=C(Nc1ccc(NC(=O)C2CC2)nc1)c1cnccn1,–,inactive: 8.39%
CN1CCN(c2ccc(NC(=O)COc3cccc4ccccc34)cc2)CC1,"inconclusive: 0.0329 µM [inhibitor, full curve, poor fit]",–
CCOC(=O)c1cc(C(=O)OCC)cc(-n2c(C)cc(C(=O)CN3CCOCC3)c2C)c1,"inconclusive: 10.4 µM [inhibitor, single point]",–
COc1ccc(C2=NN(C(=O)CCC(=O)O)C(c3ccc([N+](=O)[O-])cc3)C2)cc1 (centres undefined),–,inactive: -21.4%
O=C(c1ccc(-n2cncn2)c([N+](=O)[O-])c1)N1CCN(S(=O)(=O)c2ccccc2Br)CC1,–,inactive: -9.48%

# Further compounds:

SMILES,Potency,"activity change, negative = inhibition"
COc1ccc(-c2noc(N3CCCC(C(=O)Nc4ccc(F)cc4F)C3)n2)cc1 (centres undefined),active: 9.28 µM,–
COc1ccc(-c2coc3cc(OC4OC(CO)C(O)C(O)C4O)ccc3c2=O)cc1 (centres undefined),active: 11.7 µM,–
Cn1c(=O)c2c(nc(SCCN3CCCCC3)n2C)n(C)c1=O,"inconclusive: 18.5 µM [inhibitor, single point]",–
CC(=O)CCn1c(=O)n(CCC(C)=O)c(=O)n(CCC(C)=O)c1=O,"inconclusive: 14.7 µM [inhibitor, single point]",–
COc1ccc(CCN2C(=O)c3cccnc3C2=O)cc1OC,"inconclusive: 10.4 µM [inhibitor, single point]",–
CCOC(=O)Cn1nc(NC(=O)c2cc(OC)cc(OC)c2)cc1C,–,inactive: 0.725%
CNC(=S)/N=C/NOCc1c(Cl)cccc1Cl,"inconclusive: 11.7 µM [inhibitor, partial curve, poor fit]",–
CCc1ccc(CNCCc2ccccc2F)cc1,–,inactive: 79.1%
CCOC(=O)c1c(NC(=O)N/N=C/c2ccccc2OCC)sc(C(C)=O)c1C,"inconclusive: 18.5 µM [inhibitor, single point]",–
C=CCOC(=O)C1=C(C)OC(N)=C(C(=O)OCC)C12C(=O)N(CC(N)=O)c1ccccc12 (centres undefined),active: 13.1 µM,–
N#Cc1c(N)nc(Sc2ccc(Cl)cc2)c(C#N)c1-c1ccccc1Cl,active: 7.38 µM,–
CC1(C)c2cc(Cl)ccc2-n2c1cc(O)c(-c1ccccc1)c2=O,–,inactive: 0.851%
Cc1cc(Br)ccc1NC(=O)CN1C(=O)C2CC=CCC2C1=O (centres undefined),"inconclusive: 13.1 µM [inhibitor, single point]",–
CCCCNC(=O)Nc1ccon1,–,inactive: 16.8%
O=C(CC1C(=O)NCCN1Cc1ccc(-c2ccccc2)cc1)NCCCn1cccn1 (centres undefined),–,inactive: -7.63%
C=CCCC(=O)N1CCC(CCC(=O)NC2CC2)CC1,–,inactive: 5.44%
Cc1cccc(N2CCN(S(=O)(=O)c3cn(C)cn3)CC2)c1C,"inconclusive: 11.7 µM [inhibitor, single point]",–
COc1ccc(NC(=O)C(=O)NCC2CCCN2S(=O)(=O)c2ccc(C)cc2)cc1 (centres undefined),"inconclusive: 13.1 µM [inhibitor, single point]",–
Cc1cccc(N(Cc2ccccc2)C(=O)CN2C(=O)NC3(CCCCC3C)C2=O)c1 (centres undefined),active: 11.7 µM,–
CC(NCc1ccc(N(C)C)cc1)C1CC2CCC1C2 (centres undefined),"inconclusive: 18.5 µM [inhibitor, single point]",–
CC1CN(C(=O)CN2C(=O)c3ccccc3S2(=O)=O)CC(C)O1 (centres undefined),"inconclusive: 18.5 µM [inhibitor, single point]",–
N#Cc1c(Cl)nsc1NCCN1CCOCC1,"inconclusive: 8.28 µM [inhibitor, partial curve, poor fit]",–
